Test results published in article PMC3401112.

Target: GST-N163 (N-terminal rEag1 GST fusion protein that encodes the complete PAS domain) (rat)
Test: pull-down; GST protein-coated glutathione-agarose beads (4-8 µg) incubated with lysates of HEK293T cells expressing myc-tagged 14-3-3 isoforms at 4°C overnight; washed with buffer A; immunoblot with anti-myc; only the target purified

B1: myc-tagged 14-3-3θ (protein, UniProt P68255 1-245)
chain: MEKTELIQKAKLAEQAERYDDMATCMKAVTEQGAELSNEERNLLSVAYKNVVGGRRSAWRVISSIEQKTDTSDKKLQLIKDYREKVESELRSICTTVLELLDKYLIANATNPESKVFYLKMKGDYFRYLAEVACGDDRKQTIENSQGAYQEAFDISKKEMQPTHPIRLGLALNFSVFYYEILNNPELACTLAKTAFDEAIAELDTLNEDSYKDSTLIMQLLRDNLTLWTSDSAGEECDAAEGAEN
binding: binds

These are yes or no findings as the source states them, for the method shown. In cells and extracts the contact can be indirect. A result given as binding can be weak or reduced; the word gives no strength. Where a sequence is shown, tags or fusion partners need not be part of it.
